# In PMC7819943, “Rice protein-binding microarrays: a tool to detect cis-acting elements near promoter regions in rice”:
# Some of the results follow.
# Target: T1, OsSMF1 (Oryza sativa, UniProt Q6ZLB0 1-436)
# T1 sequence: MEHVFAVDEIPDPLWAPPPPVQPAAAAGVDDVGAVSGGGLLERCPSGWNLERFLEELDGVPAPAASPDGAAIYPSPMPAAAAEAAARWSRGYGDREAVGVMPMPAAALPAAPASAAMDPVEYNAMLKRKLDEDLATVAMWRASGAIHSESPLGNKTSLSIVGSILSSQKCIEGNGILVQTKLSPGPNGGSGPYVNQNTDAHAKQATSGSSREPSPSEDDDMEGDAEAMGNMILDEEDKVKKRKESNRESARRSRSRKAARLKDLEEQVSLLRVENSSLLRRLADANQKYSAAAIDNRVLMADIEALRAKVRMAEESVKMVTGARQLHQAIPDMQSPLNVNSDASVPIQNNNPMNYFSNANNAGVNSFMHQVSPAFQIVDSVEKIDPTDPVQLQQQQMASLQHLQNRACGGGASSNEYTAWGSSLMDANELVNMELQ
# Test: protein-binding microarray (RPBM); PBS, 2% BSA, 51.3 ng/ul salmon testes DNA, 50 uM zinc acetate, 200 nM TF, 25 C, 1 h; high values mean tight binding
# Details: protein: recombinant; tags: N-terminal polyhistidine and DsRed monomer fusion (pET32a); chain copies: 2; label: CyDye5-dUTP incorporated in the synthesized complementary strand; 3' TTTTT single-stranded linker to array surface; dsDNA, one strand shown
# Procedure, shortened: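 Per-feature fluorescence intensity (arbitrary units), read on an Axon 4000B scanner, is the binding signal. Transcription factors carrying an N-terminal polyhistidine tag and DsRed fusion were expressed in E. coli BL21-CodonPlus and purified on Ni–NTA. A custom Agilent array, made double-stranded by primer extension with Cy5-dUTP and blocked with 2% BSA, was incubated with 200 nM protein in PBS, 2% BSA, salmon testes DNA and 50 µM zinc acetate at 25 °C for 1 h and then washed.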
row,Sequence,binding signal
1,TAGTTATCGGCGCGCCCTCGTGTCTGCCCGAGCTGTTCTTCGGAGTCACCTAGTGCAG,4300 fluorescence intensity (a.u.)
2,GTCTGGCTGCTGATGGTGATGATGCTGACTTGTGACGAGTCGGAGTCACCTAGTGCAG,3620 fluorescence intensity (a.u.)
3,GTTCAGTTCACGCGCGACACCAGCAGCCTGCCTCATCACCCGGAGTCACCTAGTGCAG,4040 fluorescence intensity (a.u.)
4,GGAGGCCCATTGATTCCTACGTGGGCTGGGCCGAACACGGCGGAGTCACCTAGTGCAG,3280 fluorescence intensity (a.u.)
5,AAGATAGTGACGTACGTGCGGCCCATACCCCAATTCTCCCCGGAGTCACCTAGTGCAG,5840 fluorescence intensity (a.u.)
6,GAAAATTGTGCTTCTATTGTGTCACTACACGTTAAGTGTCCGGAGTCACCTAGTGCAG,4140 fluorescence intensity (a.u.)
7,GGTGGGGTTTATAACCGACGTGGCTTGTACGGATGGACGGCGGAGTCACCTAGTGCAG,5030 fluorescence intensity (a.u.)
8,AGCTTTATGACGATAAAGAATCACGCTTACGTGAGTGTGCCGGAGTCACCTAGTGCAG,3950 fluorescence intensity (a.u.)
9,AGAATGAGAGATCTAGTCATGTCGTCCTATACTCCGGCTACGGAGTCACCTAGTGCAG,4470 fluorescence intensity (a.u.)
10,TCTCCCCTCTCCTTCCTCCTCTCCTTTCCCCTCCTCTCTTCGGAGTCACCTAGTGCAG,17100 fluorescence intensity (a.u.)
11,GGGATGCTTTGTATTCGGTTTTGCGGTTGAATGACGCAACCGGAGTCACCTAGTGCAG,4050 fluorescence intensity (a.u.)
12,TAAACATGCCATGTGTACATGCCACATCATCTATGCATGCCGGAGTCACCTAGTGCAG,15900 fluorescence intensity (a.u.)
13,AACTCAGGGGCGACGGCGACAATGATCGGATGAGAGCTTGCGGAGTCACCTAGTGCAG,3500 fluorescence intensity (a.u.)
14,GGTTTGGTGTTTGACATGTCACAGGGCGTTGCCGCCATTACGGAGTCACCTAGTGCAG,3690 fluorescence intensity (a.u.)
15,TTCTTGAAACTCCTCAAACATTGCACGTGTATAGAACTTTCGGAGTCACCTAGTGCAG,4330 fluorescence intensity (a.u.)
16,CCCACGGGATTGTCGGTCCCTCGTTTTGGTGATGCAGGACCGGAGTCACCTAGTGCAG,3570 fluorescence intensity (a.u.)
17,CAACATAAACTAGTGCTAACTAGCTATGATGTGTTGATGTCGGAGTCACCTAGTGCAG,3500 fluorescence intensity (a.u.)
18,GGAGGAGAGGGTACAGCCACCGCTGACACCTCTGCCAGGCCGGAGTCACCTAGTGCAG,5200 fluorescence intensity (a.u.)
19,ACCACCTAAGACACTTTTGTAGTAAACCTCACGTCAGTTTCGGAGTCACCTAGTGCAG,3230 fluorescence intensity (a.u.)
20,TCCGGGCCCACCACGTCCCGTATGACTGTATGAGTTGTGACGGAGTCACCTAGTGCAG,3610 fluorescence intensity (a.u.)
21,CCGCAACCCCACGAGGCCGCGACCGACCGACCTGTCACGACGGAGTCACCTAGTGCAG,4730 fluorescence intensity (a.u.)

# Laid out differently: entries from further up
row	Sequence	binding signal
2	GTCTGGCTGCTGATGGTGATGATGCTGACTTGTGACGAGTCGGAGTCACCTAGTGCAG	3620 fluorescence intensity (a.u.)
3	GTTCAGTTCACGCGCGACACCAGCAGCCTGCCTCATCACCCGGAGTCACCTAGTGCAG	4040 fluorescence intensity (a.u.)
16	CCCACGGGATTGTCGGTCCCTCGTTTTGGTGATGCAGGACCGGAGTCACCTAGTGCAG	3570 fluorescence intensity (a.u.)

# Continuation.

row,Sequence,binding signal
1,AGAAAGCAACATGCTGTCCCGGTGGCACATCCGATTAGTACGGAGTCACCTAGTGCAG,3680 fluorescence intensity (a.u.)
2,AGCAAGTGACAGTCAGAACCCTCGAGCGTCATCAATTTCTCGGAGTCACCTAGTGCAG,4460 fluorescence intensity (a.u.)
3,CTCTTCGTTGCATTGCACTCCAGCTCACACGTCTCACCCCCGGAGTCACCTAGTGCAG,7320 fluorescence intensity (a.u.)
4,CATACATGTGTCCAAACATTCGATGTGACAGAGTAAAAGTCGGAGTCACCTAGTGCAG,3180 fluorescence intensity (a.u.)
5,GATTGCCCAGGTTTCACCGATGCCAGCTTGGCCGTGGTCGCGGAGTCACCTAGTGCAG,3900 fluorescence intensity (a.u.)
6,TCCAGGCTGCCATGCGTACGTGCGCGTGAAGCTCGCTAAGCGGAGTCACCTAGTGCAG,4430 fluorescence intensity (a.u.)
7,GGCGTGGCTCATCGTGGCCGGACACGTGCTGGCACGGCGCCGGAGTCACCTAGTGCAG,4880 fluorescence intensity (a.u.)
8,GTCATGACCAGACAGCAAAAGACGCAGTTTTGAGTCATTGCGGAGTCACCTAGTGCAG,5300 fluorescence intensity (a.u.)
9,GGAGAAAATATCAAATTTGTTCAACCATACACCCTTGTCTCGGAGTCACCTAGTGCAG,23100 fluorescence intensity (a.u.)
10,ATCAACACTTTGACTGTCAGCAAAATCATAAAGATTGATGCGGAGTCACCTAGTGCAG,3350 fluorescence intensity (a.u.)
11,AATGTAGGTACTAGGCCTTTGAGTTGTTATACAACAACTTCGGAGTCACCTAGTGCAG,26200 fluorescence intensity (a.u.)
12,GTGTGCCATGGCCTATCGTTTCCAGATGTTCACGGCAAAGCGGAGTCACCTAGTGCAG,3270 fluorescence intensity (a.u.)
13,GGTACAGTATACGTGCACAGTAGCGCACGTGCTTCACACCCGGAGTCACCTAGTGCAG,4750 fluorescence intensity (a.u.)
14,GATAGCCAACTCACCACAAACACCACCCACTTGTCCCATCCGGAGTCACCTAGTGCAG,4180 fluorescence intensity (a.u.)
15,ACCGTCGACGCGTTTGAGCGCGGCCTACTCGACGAGCCTTCGGAGTCACCTAGTGCAG,3170 fluorescence intensity (a.u.)
16,TCTGCGCCATCCACGCCAAGCGCGTCACCATCATGCCCAACGGAGTCACCTAGTGCAG,3300 fluorescence intensity (a.u.)
17,CGTGGATGAGAATCGCCACGGAGGAGCGGATCCTACGTGGCGGAGTCACCTAGTGCAG,18600 fluorescence intensity (a.u.)
18,TCTACTGTCTGACAAAGTGGGCAGAAGGTCTGACTTGGCCCGGAGTCACCTAGTGCAG,3800 fluorescence intensity (a.u.)
19,GCGCGGGCGAGGGGCAGCGGCGACGCCCGAAGTGCGCGTGCGGAGTCACCTAGTGCAG,15400 fluorescence intensity (a.u.)
20,GCGCCGCTCCGTGTCCCTCCCAATCCGAACCGTTTCGCGCCGGAGTCACCTAGTGCAG,3500 fluorescence intensity (a.u.)
21,CTACAGCAGCAGCCAAAACCAAAGGGAATAGACTAGACCCCGGAGTCACCTAGTGCAG,37900 fluorescence intensity (a.u.)
